Source: the supplement of paper PMC7877785
± gives the uncertainty stated by the source. The uncertainty is large for many entries.

Assay: self-splicing fitness, log relative to wild type (ln ratio); higher = more splicing; Tetrahymena group I intron in knt gene, E. coli kanamycin selection, DiMSum; sequences stand for … in CUCUCU…GGAGGGAAAAGUUAUCAGGCAUGCACCUGGUAGCUAGUCUUUAAACCAAUAGAUUGCAUCGGUUUAAAAGGCAAGACCGUCAAAUUGCGGGAAAGGGGUCAACAGCCGUUCAGUACCAAGUCUCAGGGGAAACUUUGAGAUGGCCUUGCAAAGGGUAUGGUAAUAAGCUGACGGACAUGGUCCUAACCACGCAGCCAAGUCCUAAGUCAACAGAUCUUCUGUUGAUAUGGAUGCAGUUCACAGACUAAAUGUCGGUCGGGGAAGAUGUAUUCUUCUCAUAAGAUAUAGUCGGACCUCUCCUUAAUGGGAGCUAGCGGAUGAAGUGAUGCAACACUGGAGCCGCUGGGAACUAAUUUGUAUGCGAAAGUAUAUUGAUUAGUUUUGGAGUACUCGUGGUCG
Outline: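 Library with all eight P1ex-region intron nucleotides randomised, intron inside the knt kanamycin-resistance gene on pET-22b(+), in E. coli BL21(DE3). Cells grew overnight at 37°C or 30°C on LB agar with or without 25 μg/mL kanamycin (plus 100 μg/mL carbenicillin, 50 μM IPTG, 0.2% rhamnose), in six replicate transformations. Pooled colonies were amplicon-sequenced on Illumina HiSeq 2500. DiMSum fitness is the error-weighted combination of wild-type-normalised replicate fold changes, kanamycin versus none.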

Row | Sequence | self-splicing fitness (ln) (30 °C) | self-splicing fitness (ln) (37 °C)
1 | GAGUAGCAAUAUUACGCAGC | -4.63 ± 0.58 | –
2 | UUGGAGCAAUAUUACGUCUU | -3.05 ± 0.61 | –
3 | UGGUAGCAAUAUUACGUAAC | – | 0.289 ± 0.6
4 | UUUAAGCAAUAUUACGACUC | -0.391 ± 0.24 | -0.881 ± 0.4
5 | GAGGAGCAAUAUUACGCGUC | -4.46 ± 0.59 | –
6 | CUUUAGCAAUAUUACGGUGC | -1.32 ± 1 | -2.63 ± 1.1
7 | GCUCAGCAAUAUUACGUUUC | -0.455 ± 0.065 | -0.0579 ± 0.091
8 | AGCCAGCAAUAUUACGCGUG | -1.91 ± 0.089 | -1.35 ± 0.092
9 | UAAAAGCAAUAUUACGCGGA | -1.8 ± 0.08 | -0.32 ± 0.082
10 | AAAUAGCAAUAUUACGGUCU | 0.108 ± 0.076 | -0.388 ± 0.084
11 | GGCGAGCAAUAUUACGACAA | -1.01 ± 0.57 | –
12 | GUGGAGCAAUAUUACGGACC | – | -2.92 ± 1
13 | CUCGAGCAAUAUUACGAGCU | – | -4.37 ± 0.59
14 | CUUGAGCAAUAUUACGCAAG | -2.37 ± 0.42 | -3.89 ± 0.51
15 | CACUAGCAAUAUUACGGGGC | -3.4 ± 0.17 | -2.23 ± 0.14
16 | AUAGAGCAAUAUUACGUCCC | – | -2.83 ± 0.61
17 | UGAGAGCAAUAUUACGUGGC | -4.93 ± 1 | -2.12 ± 0.77
18 | UGGGAGCAAUAUUACGCGCC | -1.93 ± 1.2 | -1.13 ± 1.2
19 | GAGCAGCAAUAUUACGAAAA | – | -3.16 ± 0.6
20 | UUGCAGCAAUAUUACGGCGG | -1.7 ± 0.081 | -1.01 ± 0.11
21 | AGAGAGCAAUAUUACGCUCG | -0.167 ± 1.2 | -0.879 ± 0.57
22 | GCAGAGCAAUAUUACGCGAC | -4.61 ± 0.73 | –
23 | CAGGAGCAAUAUUACGAAAU | – | -4.25 ± 0.72

Taken from above:
self-splicing fitness (ln) (37 °C), CAGGAGCAAUAUUACGAAAU reads -4.25 ± 0.72
self-splicing fitness (ln) (37 °C), CUCGAGCAAUAUUACGAGCU reads -4.37 ± 0.59

The list continues.

Row | Sequence | self-splicing fitness (ln) (30 °C) | self-splicing fitness (ln) (37 °C)
24 | CGAAAGCAAUAUUACGGCAU | -2.26 ± 0.12 | -0.29 ± 0.089
25 | CCGAAGCAAUAUUACGCAUC | – | -4.16 ± 0.72
26 | UUAUAGCAAUAUUACGGCCG | -0.763 ± 0.48 | -0.565 ± 0.37
27 | CCUGAGCAAUAUUACGGUCC | -1.71 ± 0.36 | -1.22 ± 0.43
28 | AUGGAGCAAUAUUACGAUCC | – | -1.33 ± 1.2
29 | UAGGAGCAAUAUUACGCUUU | -2.54 ± 0.32 | -1.66 ± 0.29
30 | CACGAGCAAUAUUACGCACA | -2.74 ± 0.19 | -1.17 ± 0.15
31 | GGUUAGCAAUAUUACGGAAG | -2.66 ± 0.8 | –
32 | UCGGAGCAAUAUUACGUGUC | -3.23 ± 0.74 | –
33 | UUCAAGCAAUAUUACGUACC | -3.54 ± 0.73 | –
34 | GAGUAGCAAUAUUACGGUAG | – | -1.83 ± 0.65
35 | GUUAAGCAAUAUUACGAUGG | -5.48 ± 0.71 | –
36 | GGUUAGCAAUAUUACGUCCC | -3.06 ± 1.1 | –
37 | GGGCAGCAAUAUUACGUCCG | -0.61 ± 0.091 | -0.058 ± 0.14
38 | UAGGAGCAAUAUUACGUUGC | -2.47 ± 0.78 | -2.37 ± 0.63
39 | GAGUAGCAAUAUUACGAGAA | -2.15 ± 0.83 | -1.64 ± 0.7
40 | GGGUAGCAAUAUUACGCUCU | – | -1.61 ± 0.59
41 | CUUGAGCAAUAUUACGCCUC | -1.86 ± 0.64 | –
42 | UUUUAGCAAUAUUACGGAAU | -3.97 ± 0.51 | –
43 | AUCGAGCAAUAUUACGCCCC | – | -2.22 ± 0.68
44 | AUCGAGCAAUAUUACGCUUC | -4.48 ± 0.51 | –
45 | AGGGAGCAAUAUUACGCAGG | -4.51 ± 0.51 | -0.965 ± 0.24
46 | CUUAAGCAAUAUUACGAGCA | -4.13 ± 0.59 | -2.85 ± 0.53
